Patent US6150413A, “Triaromatic compounds and pharmaceutical/cosmetic compositions comprised thereof” (Centre International de Recherches Dermatologiques, priority 1997, dated 2000)
Some entries share one result that the patent states for a list of compounds.

Tests used:
RAR [1] = assay: mouse-ear oedema induced by topical application of CD270 (test to identify RAR-antagonist molecules); assay type: in vivo; details: results in words
Excerpt: (§1) The compounds according to the invention show activity in the test of differentiation of mouse embryonic teratocarcinoma cells (F9) (Cancer Research 43, p. 5268, 1983) and/or in the test of inhibition of ornithine decarboxylase after induction with TPA in mice (Cancer Research 38, p. 793-801, 1978). These tests show the activities of these compounds in the fields of cell differentiation and proliferation respectively. In the cell (F9) differentiation test, it is possible to evaluate an agonist activity as an antagonist activity to retinoic acid receptors. […] These compounds are thus also active in a test which consists in identifying RAR-antagonist molecules, as described in French patent application No. 95/07302 filed on Jun. 19, 1995 by the Applicant. This test comprises the following steps: (i) a sufficient amount of an RAR-agonist molecule is applied topically to an area of the skin of a mammal, (ii) a molecule capable of showing RAR-antagonist activity is administered systemically or topically to this same mammal or to this same area of the mammal's skin, before, during or after step (i), and (iii) the response on the area of the mammal's skin thus treated is evaluated. Thus, the response to a topical application to a mammal's ear of an RAR-agonist molecule, which corresponds to an increase in the thickness of that ear, can be inhibited by the systemic or topical administration of an RAR-antagonist molecule.
Results of a test to identify RAR-antagonist molecules, as described in French patent application No. 95/07302 filed on Jun. 19, 1995 by the Applicant.
The test used is that of mouse-ear oedema induced by topical application of 2-(5,6,7,8-tetrahydro-5,5,8,8-tetramethyl-2-naphthyl)-6-benzo[b]-thiophenecarboxylic acid (CD270) at a concentration of 0.01% on a weight per unit volume basis.
The response can be inhibited by the topical administration of a dose (expressed in % on a weight per unit volume basis) of compound X.

RAR [2] = assay: differentiation of mouse embryonic teratocarcinoma cells (F9), inhibition of the activity of agonist CD2043 (RAR-antagonist identification); assay type: cell-based; details: results in words
Excerpt: as §1
Results of a test of differentiation of mouse embryonic teratocarcinoma cells (F9) in order to identify RAR-antagonist molecules, described in Cancer Research 43, p. 5268, 1983.
In the test used, a compound is considered as being an RAR antagonist if it lowers the activity of the agonist (4-[(5,5,8,8-tetramethyl-5,6,7,8-tetrahydro-2-naphthylamino)methyl]benzoicacid, referred to as compound CD2043) on the morphology and secretion of the plasminogen activator by the F9 cells. In this test, the compounds are tested at 10^-5 M and the CD2043 is tested at 10^-8 M.

SMILES | RAR-antagonist classification from the mouse-ear oedema table (RAR [1]) | RAR-antagonist classification from the F9 table (RAR [2])
Cc1ccc(-c2c(C)cccc2/C=C/C#Cc2ccc(C(=O)O)cc2)cc1 [Example 14, 4-[4-(6,4'-Dimethylbiphenyl-2-yl)but-3-en-(E)-1-ynyl]benzoic acid] | RAR-antagonist compounds | RAR-antagonist compounds
COCOc1ccc(-c2ccc(C)cc2)c(/C=C/C#Cc2ccc(C(=O)O)cc2)c1 [Example 15, 4-[4-(4-Methoxymethoxy-4'-methylbiphenyl-2-yl)but-3-en-(E)-1-ynyl]benzoic acid] | RAR-antagonist compounds | RAR-antagonist compounds
COCOc1ccc(/C=C/C#Cc2ccc(C(=O)O)cc2)c(-c2ccc(C)cc2)c1 [Example 16, 4-[4-(5-Methoxymethoxy-4'-methylbiphenyl-2-yl)but-3-en-(E)-1-ynyl]benzoic acid] | RAR-antagonist compounds | RAR-antagonist compounds
COCOc1cccc(/C=C/C#Cc2ccc(C(=O)O)cc2)c1-c1ccc(C)cc1 [Example 17, 4-[4-(6-Methoxymethoxy-4'-methylbiphenyl-2-yl)but-3-en-(E)-1-ynyl]benzoic acid] | RAR-antagonist compounds | RAR-antagonist compounds
C/C(=C\C#Cc1ccc(C(=O)O)cc1)c1ccccc1-c1ccc(C)cc1 [Example 18, 4-[4-(4'-Methylbiphenyl-2-yl)pent-3-en-(E)-1-ynyl]benzoic acid] | RAR-antagonist compounds | RAR-antagonist compounds
COc1ccc(/C=C/C#Cc2ccc(C(=O)O)cc2)c(-c2ccc(C)cc2)c1 [Example 42, 4-[4-(4'-Methyl-5-methoxybiphenyl-2-yl)but-3-en-(E)-1-ynyl]benzoic acid] | RAR-antagonist compounds | RAR-antagonist compounds
CCCOc1ccc(/C=C/C#Cc2ccc(C(=O)O)cc2)c(-c2ccc(C)cc2)c1 [Example 43, 4-[4-(4'-Methyl-5-propoxybiphenyl-2-yl)but-3-en-(E)-1-ynyl]benzoic acid] | RAR-antagonist compounds | RAR-antagonist compounds
Cc1ccc(-c2c(O)cccc2/C=C/C#Cc2ccc(C(=O)O)cc2)cc1 [Example 44, 4-[4-(4'-Methyl-6-hydroxybiphenyl-2-yl)but-3-en-(E)-1-ynyl]benzoic acid] | RAR-antagonist compounds | RAR-antagonist compounds
COc1cccc(/C=C/C#Cc2ccc(C(=O)O)cc2)c1-c1ccc(C)cc1 [Example 45, 4-[4-(4'-Methyl-6-methoxybiphenyl-2-yl)but-3-en-(E)-1-ynyl]benzoic acid] | RAR-antagonist compounds | RAR-antagonist compounds
